Measured data: PubChem BioAssay AID686943 (Drosophila RNAi Screening Center, 2013)

- Purpose: 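Fly genes whose loss alters ERK activation after insulin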 (primary screen)
- System: Drosophila S2R+ haemocyte-like cells expressing YFP-tagged ERK (Rolled)
- Reagent: long dsRNA against Drosophila genes
- Challenge: insulin stimulation versus unstimulated cells; dose and duration not given
- Measurement: 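Antibody staining for doubly phosphorylated ERK divided by ERK-YFP signal, as plate z-scores, in insulin-treated and untreated cells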
- Scale: replicate 1, z-score of dpERK with insulin: higher = more active ERK per ERK-YFP after insulin
The screen tested about 23,000 reagents; below is an unselected part of those that have a named target and a result. 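Extra replicates exist only for a retested subset of genes; insulin dose and duration not given; both raised and lowered dpERK matter.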 The numbers tell different reagents against one gene apart. Names joined by + are all predicted targets of the reagent. Not all columns of the deposit are shown. Reagent sequences are not shown. Not stated in the record: the amount of reagent, the time to read-out.

CG42663 #1 scored replicate 1, z-score of dpERK with insulin -2.46.
Against CG42663 #2 the deposit lists replicate 1, z-score of dpERK with insulin 1.55.
Depletion of su(Hw) came out at: replicate 1, z-score of dpERK with insulin 0.78.
CG4945 scored replicate 1, z-score of dpERK with insulin 0.27.
For CG14505 the deposit lists replicate 1, z-score of dpERK with insulin 0.12.
Silencing of fzo resulted in: replicate 1, z-score of dpERK with insulin 0.49.
With knock-down of AsnRS-m, the record shows replicate 1, z-score of dpERK with insulin 0.81.
Ptp52F gave replicate 1, z-score of dpERK with insulin -0.91.
CG9406 scored replicate 1, z-score of dpERK with insulin -0.24.
For Sap47, the entry reads replicate 1, z-score of dpERK with insulin 0.13.
For CG14062, the values are replicate 1, z-score of dpERK with insulin -0.33.
Silencing of Gr2a resulted in: replicate 1, z-score of dpERK with insulin -0.87.
CG32259 scored replicate 1, z-score of dpERK with insulin 0.37.
Knock-down of Kif19A gave: replicate 1, z-score of dpERK with insulin 0.96.
Depletion of rept came out at: replicate 1, z-score of dpERK with insulin 0.3.
With knock-down of CG1774 the results were replicate 1, z-score of dpERK with insulin 0.
Depletion of CG13678 came out at: replicate 1, z-score of dpERK with insulin 1.78.
snoRNA:Me28S-A982b + Uhg4 + snoRNA:Me28S-G3255a + 1 more gave replicate 1, z-score of dpERK with insulin -0.41.
Silencing of Bub1 resulted in: replicate 1, z-score of dpERK with insulin -0.2.
Against pnut the deposit lists replicate 1, z-score of dpERK with insulin -0.06.
Depletion of nmo #1 came out at: replicate 1, z-score of dpERK with insulin 0.47.
For nmo #2, the entry reads replicate 1, z-score of dpERK with insulin -1.52.
